Assay results taken from paper PMC8055679.
Results are given in words; binding and its absence hold for the method and conditions named. Binding seen in cells or lysates may run through a third protein. Some binding calls cover weakened binding; strength is not graded here.

Sequences of proteins named here, by UniProt entry; tags and fusion partners are left off.
UniProt Q9HCE7: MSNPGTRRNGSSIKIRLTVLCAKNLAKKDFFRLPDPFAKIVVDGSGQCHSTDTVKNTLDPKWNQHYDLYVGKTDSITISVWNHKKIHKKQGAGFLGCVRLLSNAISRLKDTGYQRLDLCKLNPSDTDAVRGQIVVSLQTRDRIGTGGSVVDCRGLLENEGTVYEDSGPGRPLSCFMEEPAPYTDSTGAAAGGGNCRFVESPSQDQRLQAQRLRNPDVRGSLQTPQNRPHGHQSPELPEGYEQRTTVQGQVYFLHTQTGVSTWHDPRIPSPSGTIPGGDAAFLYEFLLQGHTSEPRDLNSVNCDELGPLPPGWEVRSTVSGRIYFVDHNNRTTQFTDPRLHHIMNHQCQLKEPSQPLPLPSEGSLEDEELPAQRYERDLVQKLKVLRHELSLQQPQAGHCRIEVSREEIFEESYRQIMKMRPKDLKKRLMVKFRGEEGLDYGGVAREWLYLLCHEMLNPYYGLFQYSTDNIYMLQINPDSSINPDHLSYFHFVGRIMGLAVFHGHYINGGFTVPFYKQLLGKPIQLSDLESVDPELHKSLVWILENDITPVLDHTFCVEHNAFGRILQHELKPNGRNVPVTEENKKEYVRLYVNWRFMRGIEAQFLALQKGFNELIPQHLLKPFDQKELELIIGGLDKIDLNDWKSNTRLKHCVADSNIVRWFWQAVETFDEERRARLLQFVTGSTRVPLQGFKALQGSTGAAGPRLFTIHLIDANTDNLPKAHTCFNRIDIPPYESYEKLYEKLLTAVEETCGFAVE
UniProt P46934: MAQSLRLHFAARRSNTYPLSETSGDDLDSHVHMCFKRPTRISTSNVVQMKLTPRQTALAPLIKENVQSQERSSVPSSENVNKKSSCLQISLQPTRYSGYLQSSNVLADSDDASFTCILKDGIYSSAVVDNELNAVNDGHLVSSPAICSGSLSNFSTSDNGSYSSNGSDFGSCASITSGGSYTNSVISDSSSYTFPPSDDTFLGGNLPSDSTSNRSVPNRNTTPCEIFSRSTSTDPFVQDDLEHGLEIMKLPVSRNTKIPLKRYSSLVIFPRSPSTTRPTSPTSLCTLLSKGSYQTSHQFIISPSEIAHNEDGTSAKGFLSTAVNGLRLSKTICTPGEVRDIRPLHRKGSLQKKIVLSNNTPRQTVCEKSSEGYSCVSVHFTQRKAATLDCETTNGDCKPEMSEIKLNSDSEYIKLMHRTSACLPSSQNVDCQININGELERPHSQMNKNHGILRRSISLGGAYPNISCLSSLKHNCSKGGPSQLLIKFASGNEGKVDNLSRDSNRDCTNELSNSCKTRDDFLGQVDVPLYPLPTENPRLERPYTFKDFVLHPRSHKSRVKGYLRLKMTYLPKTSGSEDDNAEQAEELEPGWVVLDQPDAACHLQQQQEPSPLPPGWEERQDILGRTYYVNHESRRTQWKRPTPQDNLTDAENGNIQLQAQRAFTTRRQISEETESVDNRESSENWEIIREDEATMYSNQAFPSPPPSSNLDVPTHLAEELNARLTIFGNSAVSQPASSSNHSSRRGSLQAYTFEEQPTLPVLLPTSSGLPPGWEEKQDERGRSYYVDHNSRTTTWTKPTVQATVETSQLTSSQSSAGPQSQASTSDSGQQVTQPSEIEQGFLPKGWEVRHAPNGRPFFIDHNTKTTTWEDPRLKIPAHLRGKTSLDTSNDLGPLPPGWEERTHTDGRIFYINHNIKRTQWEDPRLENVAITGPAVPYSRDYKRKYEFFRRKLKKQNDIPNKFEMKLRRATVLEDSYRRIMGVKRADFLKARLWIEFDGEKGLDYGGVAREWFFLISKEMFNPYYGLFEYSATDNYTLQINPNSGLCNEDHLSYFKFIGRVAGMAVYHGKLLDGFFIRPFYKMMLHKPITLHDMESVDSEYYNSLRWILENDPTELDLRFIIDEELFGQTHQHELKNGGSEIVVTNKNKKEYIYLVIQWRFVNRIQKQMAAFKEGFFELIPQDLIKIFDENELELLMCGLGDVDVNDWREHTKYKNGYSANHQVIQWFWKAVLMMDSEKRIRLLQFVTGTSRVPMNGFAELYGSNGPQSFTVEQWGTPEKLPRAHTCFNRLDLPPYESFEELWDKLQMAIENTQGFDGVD

Tests used:
[1] = molecular target: SMURF1 (human (endogenous in BT474 and SKBR3)) (UniProt Q9HCE7); assay: co-IP; endogenous proteins in BT474 and SKBR3 cell lysates (500 ug total protein); IP with anti-NEDD4, anti-SMURF1 or anti-HER2 antibody and protein A/G Plus-Agarose at 4 C, control IgG, western blot; for Fig. 3f cells pretreated with MG132 (10 uM) for 6 h
[2] = molecular target: Human epidermal growth factor receptor 2 (HER2/ErbB2) (human (endogenous in BT474 and SKBR3)) (UniProt P04626); assay: as above

Row | binding [1] | binding [2] | Substance
1 | binds | no binding | NEDD4 (from UniProt P46934 1-1319) (enzyme)
2 | – | binds | SMURF1 (from UniProt Q9HCE7 1-757) (enzyme)
